In all, about 33,000 sequences were measured (“E-score (-0.5 to 0.5)”: median about -0.016, highest 2% from about 0.3 on). This is one part of the list.
biological target: T1, Yer184c (UniProt P39961); experiment: PBM E-score (8-mer binding enrichment) (E-score (-0.5 to 0.5)); higher = stronger / more preferred TF binding; details: protein concentration: 100 nM; construct: GST-full length
T1 sequence: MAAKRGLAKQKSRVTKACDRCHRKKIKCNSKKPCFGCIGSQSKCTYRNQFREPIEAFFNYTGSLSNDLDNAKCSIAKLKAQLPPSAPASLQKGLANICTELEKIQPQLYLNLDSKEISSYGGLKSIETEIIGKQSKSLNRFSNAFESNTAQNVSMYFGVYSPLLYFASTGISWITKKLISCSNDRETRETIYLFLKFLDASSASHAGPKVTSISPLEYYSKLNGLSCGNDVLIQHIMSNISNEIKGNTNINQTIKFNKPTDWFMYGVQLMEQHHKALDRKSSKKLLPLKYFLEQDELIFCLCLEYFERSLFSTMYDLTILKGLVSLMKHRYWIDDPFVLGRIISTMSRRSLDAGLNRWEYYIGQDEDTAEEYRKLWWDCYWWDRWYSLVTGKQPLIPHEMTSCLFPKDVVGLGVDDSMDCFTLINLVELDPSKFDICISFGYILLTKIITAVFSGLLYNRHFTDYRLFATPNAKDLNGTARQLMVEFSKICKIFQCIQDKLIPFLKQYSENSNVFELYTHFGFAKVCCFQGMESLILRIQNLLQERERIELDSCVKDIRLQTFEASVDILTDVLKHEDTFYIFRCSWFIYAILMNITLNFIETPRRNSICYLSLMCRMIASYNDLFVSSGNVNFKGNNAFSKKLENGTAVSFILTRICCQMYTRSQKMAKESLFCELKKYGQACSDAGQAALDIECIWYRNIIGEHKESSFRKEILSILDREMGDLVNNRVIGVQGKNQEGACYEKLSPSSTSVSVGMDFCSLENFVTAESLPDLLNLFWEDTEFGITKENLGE
How it was run: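 Yeast transcription factors carrying a GST tag, as full-length proteins or DNA-binding domains, were produced by PURExpress in vitro transcription/translation. About 100-200 nM protein was applied to universal all-10-mer Agilent arrays, double-stranded by primer extension on fresh or once-stripped slides. Bound protein was detected with fluorescent anti-GST, and scans were normalised with masliner. The Universal PBM Analysis Suite gave each ungapped eight-base word, pooled with its reverse complement, an E-score, a modified Wilcoxon-Mann-Whitney statistic.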

| Sequence | PBM E-score |
| --- | --- |
| ATATTGGC | -0.0624 |
| ACGGAGCG | 0.185 |
| AACAGAAT | 0.0416 |
| GTATTCAA | 0.177 |
| GAAAGAGA | -0.0018 |
| ACCGTCCC | -0.066 |
| CTTCTAGA | -0.0806 |
| ATCCGCTG | -0.00718 |
| AACTTCCG | 0.298 |
| ACTTTAAT | 0.0699 |
| ATGCAGTA | 0.0594 |
| ATTAAGAC | 0.0147 |
| CCTGATTC | -0.0358 |
| ATATCACG | -0.0542 |
| CGCATAAA | 0.129 |
| GCACTCAA | -0.108 |
| ACCCCGGA | 0.142 |
| TGTACACA | 0.126 |
| ACTACTTG | -0.145 |
| ATTTCTAC | 0.157 |
| GCACGTGA | -0.0956 |
| AACTTAAC | 0.266 |
| GAAGCACA | 0.0735 |
| CAATCCCG | 0.195 |
| ATACCGTG | 0.0737 |

| Sequence | PBM E-score |
| --- | --- |
| CCCCGGGG | 0.281 |
| ACCTGGGC | -0.377 |
| GGTTGAAC | 0.0281 |
| CATTAACG | 0.0762 |
| AAGAATCA | 0.122 |
| ACACATGT | 0.0127 |
| GCGTGTCC | 0.0203 |
| CATTCAGA | 0.0525 |
| ATCCGCTA | 0.0589 |
| AAGGCAAT | 0.00623 |
| AAGCCCAG | -0.201 |
| ATAGCCTG | -0.0249 |
| GGTGTTGA | -0.226 |
| CGCCCCGC | -0.017 |
| ACACATCC | 0.0937 |
| GACTGCAA | -0.259 |
| ACATAGAC | -0.073 |
| AACGTACT | -0.00247 |
| TCCAATAA | 0.243 |
| AAAAGGCA | 0.11 |
| AAAGTGCT | -0.0291 |
| ATACTGGA | 0.0367 |
| AGCACCGA | 0.221 |
| AAAGGATT | -0.157 |
| CAACCACA | 0.123 |

| Sequence | PBM E-score |
| --- | --- |
| CTGACAAA | 0.156 |
| ACCGGGGA | -0.0487 |
| ACACTGCA | -0.172 |
| ACGTTTGG | -0.142 |
| AGCCAACC | -0.0201 |
| AAGACGAC | -0.0814 |
| TGAGATCA | 0.0936 |
| CTTCTTCC | -0.125 |
| CTAGAGTC | -0.305 |
| AGAGACTC | -0.0795 |
| CGAGTGCG | 0.0421 |
| AAGGCATC | -0.0324 |
| CTAAAGCA | 0.126 |
| ATGTATCG | 0.0991 |
| ATCAGGTG | 0.00296 |
| GTGTAAAC | 0.126 |
| ATTATCGC | 0.208 |
| CCAATTCC | 0.229 |
| AACTGTGG | 0.051 |
| CGGAAAAA | 0.394 |
| AGGCAGGC | -0.0599 |
| AGGGTATG | -0.21 |
| ATGGACAA | 0.128 |
| ACCAGAAC | 0.0162 |
| AGAAAGGA | -0.0781 |

Looked up above.
Value for GTGTAAAC under PBM E-score: 0.126
Value for CTTCTTCC under PBM E-score: -0.125

Remaining list, next part:

| Sequence | PBM E-score |
| --- | --- |
| ATTTAACA | 0.0905 |
| AATCAAAT | 0.0737 |
| CGCGTCAG | -0.254 |
| GAGAGGAA | -0.116 |
| ATACTCAT | 0.0111 |
| ACCTCTCC | -0.142 |
| CTTAATAC | 0.00233 |
| AAAGATCG | -0.00326 |
| CGTCTCAG | 0.0391 |
| AACTCGAG | 0.0336 |
| GAAGGGAA | -0.203 |
| GAATTTGA | 0.14 |
| TAAGACTA | -0.0449 |
| GAGAATCC | 0.0247 |
| CAGGGTCC | -0.0878 |
| CAGATTAC | 0.0782 |
| ACGATGTA | -0.00499 |
| CGATGATA | 0.152 |
| CGAGCGTA | 0.0419 |
| CATAGCTC | -0.0893 |
| ACAGTGGA | -0.0563 |
| AACAGTGA | -0.0862 |
| GTACAGTA | -0.0271 |
| AGTCACAG | -0.106 |
| CCCCCGCA | -0.203 |

Part of the list above, reformatted.
Sequence | PBM E-score
CATTCAGA | 0.0525
ATCCGCTA | 0.0589
AAGGCAAT | 0.00623
AAGCCCAG | -0.201
ATAGCCTG | -0.0249
GGTGTTGA | -0.226
CGCCCCGC | -0.017
ACACATCC | 0.0937
GACTGCAA | -0.259
ACATAGAC | -0.073
AACGTACT | -0.00247
TCCAATAA | 0.243
AAAAGGCA | 0.11
AAAGTGCT | -0.0291
ATACTGGA | 0.0367
AGCACCGA | 0.221
AAAGGATT | -0.157
CAACCACA | 0.123
CTGACAAA | 0.156
ACCGGGGA | -0.0487
ACACTGCA | -0.172
ACGTTTGG | -0.142
AGCCAACC | -0.0201
AAGACGAC | -0.0814
TGAGATCA | 0.0936
CTTCTTCC | -0.125
CTAGAGTC | -0.305
AGAGACTC | -0.0795
CGAGTGCG | 0.0421
AAGGCATC | -0.0324
CTAAAGCA | 0.126
ATGTATCG | 0.0991

Following part:

| Sequence | PBM E-score |
| --- | --- |
| CAGAAAGG | -0.123 |
| TTACGCAA | 0.0884 |
| AACGCATA | 0.0315 |
| CTGTGTTC | 0.093 |
| TCCGAAGA | 0.376 |
| CAATACCC | -0.181 |
| ACCGACGG | 0.158 |
| CGCAATAG | -0.0415 |
| CGATGGCA | 0.0144 |
| CAGGGAAG | -0.216 |
| CGGAGAAC | 0.14 |
| TACGCTCA | -0.0428 |
| GTGATAAA | 0.179 |
| GCGTCCAA | -0.025 |
| TGGCGAAA | 0.0101 |
| TAGCACAA | -0.00731 |
| CTTCAATA | 0.135 |
| AGCTAATC | 0.0408 |
| TAGCCAGA | 0.0229 |
| GTCCACGA | -0.129 |
| GGAGCTAC | -0.113 |
| AGAGTCTG | -0.22 |
| ACGCTCGC | -0.00392 |
| TGTTACAA | 0.231 |
| GAGATCTA | -0.184 |

| Sequence | PBM E-score |
| --- | --- |
| CATATGAA | 0.0245 |
| GTACTCGA | -0.113 |
| AATTGTAA | 0.0139 |
| ACAGGGAA | -0.0722 |
| AGCCCAGC | -0.151 |
| AGAGTGCA | -0.111 |
| GAGTGTCA | 0.0744 |
| TAGACGAA | 0.0936 |
| AAGAACCC | -0.0463 |
| ACCATAAA | 0.148 |
| CCCAATAC | -0.179 |
| GGAGTGTA | -0.236 |
| ATTTACCC | -0.0431 |
| GCCCACCA | -0.33 |
| AACTTGTA | -0.0251 |
| CCCAAGCG | -0.156 |
| ATTAACAC | 0.253 |
| CTTTGGTA | -0.103 |
| AGGAACGG | 0.124 |
| CTTAAAGA | 0.0801 |
| CATAACAG | 0.00022 |
| CGTCTCAC | -0.132 |
| AATGCAAG | 0.0204 |
| CAATCCGC | 0.095 |
| CGAGAGAC | -0.152 |

| Sequence | PBM E-score |
| --- | --- |
| AACATCAA | 0.156 |
| GCGAGTGA | 0.0703 |
| ACTAAGAT | 0.154 |
| TGGTAAAA | 0.203 |
| CGTAGGTC | -0.29 |
| ATAGAGGG | -0.135 |
| ACTTCTCC | 0.0148 |
| ATACCTAT | -0.054 |
| TATTGCGA | 0.034 |
| CTGGTATA | -0.25 |
| GGCTTATA | -0.00393 |
| TCCCGCCA | -0.0332 |
| ACCGAGTA | 0.126 |
| ATTGGGCG | -0.119 |
| AATCACGC | 0.125 |
| CTATTTAC | 0.154 |
| ATATATTG | 0.0957 |
| GAGCTGAA | -0.0973 |
| GACCCTTA | -0.0736 |
| AAGATTAA | 0.224 |
| GAAACCTA | -0.147 |
| CATTCCTC | -0.0195 |

Source: the supplement of paper PMC3334620
